Measurements taken from article PMC4066776.
These are yes or no findings as the source states them, for the method shown. Some results given as binding are weak or reduced against the parent protein; the word gives no strength. For some assays here: Where a sequence is shown, tags or fusion partners need not be part of it.

Key:
[1] = target: S. pneumoniae RecA, full-length (FL), Gal4 fusion for yeast two-hybrid (S. pneumoniae) (UniProt P0A451); experiment: two-hybrid; Gal4-AD (pGAD-C1) and Gal4-BD (pGBDU-C1) fusions co-transformed in yeast pJ69-4A; growth on synthetic complete medium lacking leucine, uracil and histidine; 1/5th dilution series, 5 days at 28°C
[2] = target: T1, S. pneumoniae wild-type DprA, Gal4-BD fusion (S. pneumoniae) (UniProt Q8DPI7); experiment: as above
T1 sequence: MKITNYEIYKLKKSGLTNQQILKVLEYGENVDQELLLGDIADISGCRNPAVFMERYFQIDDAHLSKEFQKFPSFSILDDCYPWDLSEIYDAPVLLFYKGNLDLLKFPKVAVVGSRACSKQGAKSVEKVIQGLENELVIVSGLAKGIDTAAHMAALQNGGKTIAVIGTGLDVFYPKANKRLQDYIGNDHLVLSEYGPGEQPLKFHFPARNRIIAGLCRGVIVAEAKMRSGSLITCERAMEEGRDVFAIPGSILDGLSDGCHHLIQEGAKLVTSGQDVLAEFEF

Question: What does the source list for “S. pneumoniae RecA, full-length (FL), Gal4 fusion for yeast two-hybrid (from UniProt P0A451 1-388)”?
Answer: binding [1]: binds; binding [2]: no binding
